Results on 8 compounds are retold here after patent US20250115633A1, “PHOTODYNAMIC THERAPY AND DIAGNOSIS” (RMW CHO Group Limited, priority 2021, published 2025).

Counter-ions that a name gives are not always drawn.

For the data set, the system named is SKOV3 ovarian cancer cells. Nature of the data set: Therapeutic index calculated using phototoxicity IC90 vs dark toxicity IC10. The class given is cell-based, Human.
For the compound `C=Cc1c(C)c2cc3nc(c(C)c4[nH]c(cc5nc(cc1[nH]2)C(C)=C5CC)c(C)c4C(=O)O)[C@@H](CCC(=O)O)[C@@H]3C` [Chlorin e4 disodium, Chlorin e4 Disodium Salt, reference compound], the “Therapeutic Index” value is listed as 1.89. As for `CCC1=C(C)c2cc3[nH]c(cc4nc(c(C)c5[nH]c(cc1n2)c(C)c5C(=O)OC)[C@@H](CCC(=O)OC)[C@@H]4C)c(C)c3C(C)OCCCS[C@@H]1O[C@H](CO)[C@@H](O)[C@H](O)[C@H]1O` (stereo partly drawn) [Compound 1, methyl (7S,8S)-18-ethyl-7-(3-methoxy-3-oxopropyl)-2,5,8,12,17-pentamethyl-13-(1-(3-(((2S,3R,4S,5S,6R)-3,4,5-trihydroxy-6-(hydroxymethyl)tetrahydro-2H-pyran-2-yl)thio)propoxy)ethyl)-7H,8H-porphyrin-3-carboxylate], the figure is 144.00; as for `CCC1=C(C)c2cc3[nH]c(cc4nc(c(C)c5[nH]c(cc1n2)c(C)c5C(=O)OC)[C@@H](CCC(=O)OC)[C@@H]4C)c(C)c3COC(=O)NCCCOCCC[P+](c1ccccc1)(c1ccccc1)c1ccccc1` [Compound 4, chlorin e4 dimethyl ester 13-(N-(3-(3-triphenylphosphoniumpropoxy)propyl)chloride)carbamate], 1,617.08; as for `CCC1=C(C)c2cc3[nH]c(cc4nc(c(C)c5[nH]c(cc1n2)c(C)c5C(=O)OC)[C@@H](CCC(=O)OC)[C@@H]4C)c(C)c3COC(=O)NCCC[P+](c1ccccc1)(c1ccccc1)c1ccccc1` [Compound 5, chlorin e4 dimethyl ester 13-(N-(3-triphenylphosphoniumpropyl)bromide)carbamate], 1,050.34. As for `CCC1=C(C)c2cc3[nH]c(cc4nc(c(C)c5[nH]c(cc1n2)c(C)c5C(=O)OC)[C@@H](CCC(=O)OC)[C@@H]4C)c(C)c3COC(=O)NCC[P+](c1ccccc1)(c1ccccc1)c1ccccc1` [Compound 6, chlorin e4 dimethyl ester 13-(N-(2-triphenylphosphoniumethyl)bromide)carbamate], the figure is 1,267.22; as for `C=Cc1c(C)c2cc3nc(c(CC(=O)N[C@@H](CC(=O)O)C(=O)O)c4[nH]c(cc5nc(cc1[nH]2)C(C)=C5CC)c(C)c4C(=O)O)[C@@H](CCC(=O)O)[C@@H]3C` [Talaporfin sodium, reference compound], 0.49. The same measure for “chlorin e4 13-hydroxymethyl dimethyl ester”: 131.87; for “chlorin e4 dimethyl ester 13-(6-(triphenylphosphonium bromide)hexyl)carbamate [Compound 3]”: 204.39.
